From paper PMC12181301
These are yes or no findings as the source states them, for the method shown. In cells and extracts the contact can be indirect. Here binding means that the protein was enriched with, or labelled near, the bait; the list need not be complete.

The chains behind the UniProt entries cited, without tags or fusion partners.
UniProt P02340: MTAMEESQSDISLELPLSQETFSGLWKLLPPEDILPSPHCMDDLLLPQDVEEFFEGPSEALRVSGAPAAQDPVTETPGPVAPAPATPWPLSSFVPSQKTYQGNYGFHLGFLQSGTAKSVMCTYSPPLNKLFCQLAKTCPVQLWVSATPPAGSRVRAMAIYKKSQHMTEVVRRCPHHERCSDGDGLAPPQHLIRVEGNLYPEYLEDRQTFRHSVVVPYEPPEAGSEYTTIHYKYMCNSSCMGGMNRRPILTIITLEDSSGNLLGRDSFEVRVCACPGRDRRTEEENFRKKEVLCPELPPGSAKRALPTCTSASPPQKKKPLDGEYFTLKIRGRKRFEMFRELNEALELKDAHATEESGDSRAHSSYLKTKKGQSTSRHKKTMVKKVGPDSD

Target: T1, Iron-Sulfur Cluster Assembly Enzyme (ISCU) (mouse (endogenous in RAW264.7 or BMDM)) (UniProt Q9D7P6)
T1 sequence: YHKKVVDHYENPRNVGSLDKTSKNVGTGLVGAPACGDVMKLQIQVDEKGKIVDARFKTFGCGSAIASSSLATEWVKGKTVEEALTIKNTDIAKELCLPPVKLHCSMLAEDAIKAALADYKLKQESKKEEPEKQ
Experiment: affinity purification with mass spectrometry; lysates of M0 and M2 macrophages incubated with anti-ISCU antibody, then protein A/G agarose for 4 h; bound proteins eluted and identified by mass spectrometry

- binding: binds
Substance: p53 protein (from UniProt P02340 1-390)
